The results are deposited in PubChem (AID1159506; NCATS, 2015).

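Luminescence from an EWS-FLI1 target-promoter (NR0B1) reporter, set against a CMV-promoter reporter, two days after silencing single genes in TC32 Ewing sarcoma cells.
Each siRNA was applied at 20 nM.
A z-score of the log NR0B1-over-CMV signal, less the median of siRNAs with the same seed; more negative means a stronger specific loss of the NR0B1 reporter.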

The strongest results of the screen are mostly left out here.
Sequences are the guide (antisense) strand, without overhang.

| # | Sequence | target gene | seed-corrected z-score |
|---|---|---|---|
| 1 | `AGUCAGAUAAGAGUAAACC` | RARS2 | 0.5964 |
| 2 | `UUUCUUAUUCCUGUUGAGU` | RPL10AP3 | -0.005338 |
| 3 | `UUCCGCUUCACUUGCAGGC` | PRMT1 | -0.4521 |
| 4 | `AAGGAAAUCGAGCUGAUUC` | GP5 | 0.4263 |
| 5 | `UUCUCUGCGAUCAUGAUUG` | CHDH | -1.067 |
| 6 | `AGAGAGACAAUUCUCCUCC` | C11orf21 | 0.05245 |
| 7 | `AUAGAGAAUGUAACAGGCG` | RABAC1 | -0.6617 |
| 8 | `UCAGCUGGUGGAUUAGUUC` | SPATA24 | 0.3469 |
| 9 | `UCAUCACCCACCAAGUAGC` | PAK3 | -0.07909 |
| 10 | `AGAUGUAGAGGAAUUUUCC` | NPAS1 | -0.456 |
| 11 | `UCACAUAUGAAUGUGGUCG` | ABHD5 | -0.2132 |
| 12 | `AUCUUGUCCACAUUGCUAC` | NFIL3 | -1.589 |
| 13 | `UGUCUUGAAAGAUCUAUAG` | ZYG11A | -0.4341 |
| 14 | `UAGGAAAUAAUCCUUGUCA` | HSPE1 | -0.1825 |
| 15 | `UCGGCAUCGUCGGAAAAGG` | CDRT15 | -1.028 |
| 16 | `UUCACUGACGCACAGCUCC` | GTSCR1 | 0.1723 |
| 17 | `AAGUGUGCAAACAUCCUCC` | LRP11 | 0.2255 |
| 18 | `UUUGGGCUCUCCGUGCAUG` | RPUSD3 | -0.111 |
| 19 | `UGACUUCAACUUGUCCUGC` | TNRC18P1 | -0.7378 |
| 20 | `UCUAUGUAUGGUGUACAUG` | CHST3 | 0.451 |
| 21 | `UCCCUUAUGAUAAACAAGG` | ZNF613 | 0.3183 |
| 22 | `ACCUUUGAUAUUAACAAUC` | CFAP100 | 0.577 |
| 23 | `UAAUUUCUCAUACCCACUC` | RTP4 | 0.5638 |
| 24 | `UAUGUUGUUCCAAAAGAGG` | RAC2 | -0.5903 |
| 25 | `AGUAGAGACAUCACCAAGC` | MSMP | 0.1042 |
| 26 | `UUCCUAUUAAGAUCUCCGG` | ECHS1 | -0.1619 |
| 27 | `ACAAUGUAAAUGUUCCGCG` | TSPAN14 | 0.8544 |
| 28 | `UUGCUUUCUAAGGAGAUUG` | DOT1L | -0.08198 |
| 29 | `UAAGUUUUAAAAUCCAGAG` | NXT2 | -0.05761 |
| 30 | `UUACGUAUGGUGUCAGUGG` | PLCB4 | -0.3737 |
| 31 | `UUACGGUACAGGUUCCAUC` | DYNLT3 | -0.7645 |
| 32 | `AAUGUAGACACUGUUGAGG` | LYL1 | -0.5039 |
| 33 | `AAAUUAAAAGUAUGAAUGG` | TMEM97 | 0.989 |
| 34 | `UUUUCUCCUUGCGAUCUUC` | TMEM198 | 0.4649 |
| 35 | `AUCCUGGUGACAAUUGUCU` | LEP | -0.9266 |
| 36 | `UUCCAUGCAAUCAUAAUGC` | OSGEPL1 | 1.181 |
| 37 | `UACCAUGUCCCGCACUUCC` | C19orf48 | 0.4152 |
| 38 | `UCUGUCGAAACAUCAUAGC` | RAPGEF6 | 0.02263 |
| 39 | `UUUGAAAAAGAGGUAGAGC` | HM13 | -0.1864 |
| 40 | `ACCUGUAGCGUGAAGACCC` | FAM132A | 0.7296 |
| 41 | `AUUCGAAUCACUCCAAUUC` | NETO2 | 0.1675 |
| 42 | `UUUGGUGAUUUUGCGCAUG` | ARL8A | 0.01921 |
| 43 | `AACAAUUUCAGCUACUCGG` | BCL2L14 | 0.1176 |
| 44 | `AUAAGUUUGAGGCAGAUAU` | ITM2A | 0.7347 |
| 45 | `UUUGGUGAAGUCGCAGCCU` | MISP | 0.9242 |
| 46 | `UUUCGAUGAACCGGUCCCU` | YBX3 | -0.248 |
| 47 | `UUUGAGUUUGGUGAUGAUG` | P2RX6 | 0.1862 |
| 48 | `UUCUGAUUGCUCAAACUGC` | IGF2BP3 | -0.2076 |
| 49 | `AUUGUUCUCACGUUGUCCC` | B4GALT5 | -0.3661 |
| 50 | `UUGGGAUGAGGUGCAUGUG` | FAM136A | -0.9723 |
| 51 | `UAUCUUGUGGACAAUUUGC` | ZNF800 | 0.05891 |
| 52 | `UUGAUCAUGAGCGUGGUGC` | TRAPPC5 | 0.16 |
| 53 | `UUCACGUUCAGCUUUGCUC` | UST | -0.3369 |
| 54 | `AUAGUAGUCAUAAUUCCUC` | BPNT1 | 0.3585 |
| 55 | `UUAAGUACCUGUUCACAGG` | LCNL1 | -0.4488 |
| 56 | `AAAACUGCAACCAUCACCC` | ZDHHC20 | -0.6606 |
| 57 | `UGUAGUUCUGGGACACUGG` | OR5B2 | 1.347 |
| 58 | `UCUUGCAGUAUCGCUCUCC` | MRPS35 | -1.441 |
| 59 | `UUUCAUCCAAUUUUAUUCU` | CD99P1 | 0.5207 |
| 60 | `UGUCGAGUCACUGCCCUUC` | SPDEF | -0.4905 |
| 61 | `UAAUUUCAUCUACCCGUUC` | METTL3 | -0.02812 |
| 62 | `UUGGUAGUAUAGAUGUACC` | POLR3C | -0.7442 |
| 63 | `UAAGCUUUCUCACUCAUAU` | ZNF16 | 0.3216 |
| 64 | `UCCGCUCUAAAUAUCCUUC` | KAT6A | -0.1748 |
| 65 | `UGCAGUAUCAAGAUCACCC` | TOP2B | -0.1838 |
| 66 | `UCUGUUGUCUGAUUCCUCU` | CRNN | -1.726 |
| 67 | `UGAGUAUCUAGACAGAGUG` | LSM11 | 0.616 |
| 68 | `UGCACUGCAAGUUCCAGAC` | RDH8 | 0.03938 |
| 69 | `AUGAUAACCACAAUUACGG` | TARM1 | 0.6623 |
| 70 | `UACAUUACCAGAGUCUUCU` | WHSC1 | 0.1722 |
| 71 | `CAGACAGCAGUGUAAGUAC` | LINC00304 | 0.2914 |
| 72 | `UCAGGGUCCAGUAGAGCUC` | SH2D4B | 1.99 |
| 73 | `AUGGUGGUCAGCGUGAUCA` | KCNQ2 | -1.153 |
| 74 | `UUCUGGGAGACAGCUAUAG` | PRICKLE2 | 0.4781 |
| 75 | `UUCACGUCCAGUAUGGUCA` | RDH16 | -1.122 |
| 76 | `UUAGCAGAGAAGAACAUUC` | RGS1 | 1.594 |
| 77 | `AUUUGUAGCAAUUGAAUUA` | PRB4 | 1.878 |
| 78 | `UAGGGUGAGAAGCUAUGGU` | POLR2J4 | 0.01739 |
| 79 | `UCUGGAAAAACUUUUGUAG` | COX7A2L | 0.4323 |
| 80 | `ACAGCUACAAUGAGGAUGG` | CYHR1 | 0.2533 |
| 81 | `UCUGUUUCCACAUCGUAGC` | KEAP1 | -0.2797 |
| 82 | `AUAUCCUUCAUACAUAGGG` | USP1 | 0.2884 |

Repeated from the top, 5 entries:

For AGUCAGAUAAGAGUAAACC against RARS2 the result was seed-corrected z-score 0.5964.
For UUUCUUAUUCCUGUUGAGU against RPL10AP3 the result was seed-corrected z-score -0.005338.
For UUCCGCUUCACUUGCAGGC against PRMT1 the result was seed-corrected z-score -0.4521.
For AAGGAAAUCGAGCUGAUUC against GP5 the result was seed-corrected z-score 0.4263.
For UUCUCUGCGAUCAUGAUUG against CHDH the result was seed-corrected z-score -1.067.